Our source for the binding values is PMC7578830.

Chains of the proteins cited; added tags and fusions are not shown.
UniProt O61735: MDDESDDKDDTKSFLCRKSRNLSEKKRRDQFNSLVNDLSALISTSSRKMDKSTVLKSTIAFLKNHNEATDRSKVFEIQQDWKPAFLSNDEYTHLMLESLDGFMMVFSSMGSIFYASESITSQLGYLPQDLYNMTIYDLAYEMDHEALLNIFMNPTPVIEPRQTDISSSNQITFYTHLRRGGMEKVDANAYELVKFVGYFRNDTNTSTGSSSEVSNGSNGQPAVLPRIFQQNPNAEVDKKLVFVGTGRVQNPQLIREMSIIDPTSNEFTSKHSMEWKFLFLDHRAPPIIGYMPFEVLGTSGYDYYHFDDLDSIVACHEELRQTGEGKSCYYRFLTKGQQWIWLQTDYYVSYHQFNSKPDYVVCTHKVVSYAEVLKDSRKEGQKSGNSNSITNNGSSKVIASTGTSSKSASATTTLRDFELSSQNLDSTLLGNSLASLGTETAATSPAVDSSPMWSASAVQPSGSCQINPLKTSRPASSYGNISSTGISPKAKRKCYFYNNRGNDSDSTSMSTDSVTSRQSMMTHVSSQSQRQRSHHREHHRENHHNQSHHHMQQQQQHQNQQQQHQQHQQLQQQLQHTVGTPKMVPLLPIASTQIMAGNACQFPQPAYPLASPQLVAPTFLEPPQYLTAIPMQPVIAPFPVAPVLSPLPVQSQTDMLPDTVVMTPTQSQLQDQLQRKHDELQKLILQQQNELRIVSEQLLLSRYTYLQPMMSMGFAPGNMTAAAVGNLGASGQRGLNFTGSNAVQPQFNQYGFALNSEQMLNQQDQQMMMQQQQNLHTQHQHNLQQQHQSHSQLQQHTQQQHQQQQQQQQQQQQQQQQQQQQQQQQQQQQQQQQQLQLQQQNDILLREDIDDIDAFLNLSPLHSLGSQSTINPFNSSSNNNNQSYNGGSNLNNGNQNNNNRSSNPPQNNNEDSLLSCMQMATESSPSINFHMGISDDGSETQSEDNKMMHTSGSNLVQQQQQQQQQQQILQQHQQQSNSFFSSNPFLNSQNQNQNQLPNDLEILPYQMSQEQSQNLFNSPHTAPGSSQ
UniProt Q8I8U7: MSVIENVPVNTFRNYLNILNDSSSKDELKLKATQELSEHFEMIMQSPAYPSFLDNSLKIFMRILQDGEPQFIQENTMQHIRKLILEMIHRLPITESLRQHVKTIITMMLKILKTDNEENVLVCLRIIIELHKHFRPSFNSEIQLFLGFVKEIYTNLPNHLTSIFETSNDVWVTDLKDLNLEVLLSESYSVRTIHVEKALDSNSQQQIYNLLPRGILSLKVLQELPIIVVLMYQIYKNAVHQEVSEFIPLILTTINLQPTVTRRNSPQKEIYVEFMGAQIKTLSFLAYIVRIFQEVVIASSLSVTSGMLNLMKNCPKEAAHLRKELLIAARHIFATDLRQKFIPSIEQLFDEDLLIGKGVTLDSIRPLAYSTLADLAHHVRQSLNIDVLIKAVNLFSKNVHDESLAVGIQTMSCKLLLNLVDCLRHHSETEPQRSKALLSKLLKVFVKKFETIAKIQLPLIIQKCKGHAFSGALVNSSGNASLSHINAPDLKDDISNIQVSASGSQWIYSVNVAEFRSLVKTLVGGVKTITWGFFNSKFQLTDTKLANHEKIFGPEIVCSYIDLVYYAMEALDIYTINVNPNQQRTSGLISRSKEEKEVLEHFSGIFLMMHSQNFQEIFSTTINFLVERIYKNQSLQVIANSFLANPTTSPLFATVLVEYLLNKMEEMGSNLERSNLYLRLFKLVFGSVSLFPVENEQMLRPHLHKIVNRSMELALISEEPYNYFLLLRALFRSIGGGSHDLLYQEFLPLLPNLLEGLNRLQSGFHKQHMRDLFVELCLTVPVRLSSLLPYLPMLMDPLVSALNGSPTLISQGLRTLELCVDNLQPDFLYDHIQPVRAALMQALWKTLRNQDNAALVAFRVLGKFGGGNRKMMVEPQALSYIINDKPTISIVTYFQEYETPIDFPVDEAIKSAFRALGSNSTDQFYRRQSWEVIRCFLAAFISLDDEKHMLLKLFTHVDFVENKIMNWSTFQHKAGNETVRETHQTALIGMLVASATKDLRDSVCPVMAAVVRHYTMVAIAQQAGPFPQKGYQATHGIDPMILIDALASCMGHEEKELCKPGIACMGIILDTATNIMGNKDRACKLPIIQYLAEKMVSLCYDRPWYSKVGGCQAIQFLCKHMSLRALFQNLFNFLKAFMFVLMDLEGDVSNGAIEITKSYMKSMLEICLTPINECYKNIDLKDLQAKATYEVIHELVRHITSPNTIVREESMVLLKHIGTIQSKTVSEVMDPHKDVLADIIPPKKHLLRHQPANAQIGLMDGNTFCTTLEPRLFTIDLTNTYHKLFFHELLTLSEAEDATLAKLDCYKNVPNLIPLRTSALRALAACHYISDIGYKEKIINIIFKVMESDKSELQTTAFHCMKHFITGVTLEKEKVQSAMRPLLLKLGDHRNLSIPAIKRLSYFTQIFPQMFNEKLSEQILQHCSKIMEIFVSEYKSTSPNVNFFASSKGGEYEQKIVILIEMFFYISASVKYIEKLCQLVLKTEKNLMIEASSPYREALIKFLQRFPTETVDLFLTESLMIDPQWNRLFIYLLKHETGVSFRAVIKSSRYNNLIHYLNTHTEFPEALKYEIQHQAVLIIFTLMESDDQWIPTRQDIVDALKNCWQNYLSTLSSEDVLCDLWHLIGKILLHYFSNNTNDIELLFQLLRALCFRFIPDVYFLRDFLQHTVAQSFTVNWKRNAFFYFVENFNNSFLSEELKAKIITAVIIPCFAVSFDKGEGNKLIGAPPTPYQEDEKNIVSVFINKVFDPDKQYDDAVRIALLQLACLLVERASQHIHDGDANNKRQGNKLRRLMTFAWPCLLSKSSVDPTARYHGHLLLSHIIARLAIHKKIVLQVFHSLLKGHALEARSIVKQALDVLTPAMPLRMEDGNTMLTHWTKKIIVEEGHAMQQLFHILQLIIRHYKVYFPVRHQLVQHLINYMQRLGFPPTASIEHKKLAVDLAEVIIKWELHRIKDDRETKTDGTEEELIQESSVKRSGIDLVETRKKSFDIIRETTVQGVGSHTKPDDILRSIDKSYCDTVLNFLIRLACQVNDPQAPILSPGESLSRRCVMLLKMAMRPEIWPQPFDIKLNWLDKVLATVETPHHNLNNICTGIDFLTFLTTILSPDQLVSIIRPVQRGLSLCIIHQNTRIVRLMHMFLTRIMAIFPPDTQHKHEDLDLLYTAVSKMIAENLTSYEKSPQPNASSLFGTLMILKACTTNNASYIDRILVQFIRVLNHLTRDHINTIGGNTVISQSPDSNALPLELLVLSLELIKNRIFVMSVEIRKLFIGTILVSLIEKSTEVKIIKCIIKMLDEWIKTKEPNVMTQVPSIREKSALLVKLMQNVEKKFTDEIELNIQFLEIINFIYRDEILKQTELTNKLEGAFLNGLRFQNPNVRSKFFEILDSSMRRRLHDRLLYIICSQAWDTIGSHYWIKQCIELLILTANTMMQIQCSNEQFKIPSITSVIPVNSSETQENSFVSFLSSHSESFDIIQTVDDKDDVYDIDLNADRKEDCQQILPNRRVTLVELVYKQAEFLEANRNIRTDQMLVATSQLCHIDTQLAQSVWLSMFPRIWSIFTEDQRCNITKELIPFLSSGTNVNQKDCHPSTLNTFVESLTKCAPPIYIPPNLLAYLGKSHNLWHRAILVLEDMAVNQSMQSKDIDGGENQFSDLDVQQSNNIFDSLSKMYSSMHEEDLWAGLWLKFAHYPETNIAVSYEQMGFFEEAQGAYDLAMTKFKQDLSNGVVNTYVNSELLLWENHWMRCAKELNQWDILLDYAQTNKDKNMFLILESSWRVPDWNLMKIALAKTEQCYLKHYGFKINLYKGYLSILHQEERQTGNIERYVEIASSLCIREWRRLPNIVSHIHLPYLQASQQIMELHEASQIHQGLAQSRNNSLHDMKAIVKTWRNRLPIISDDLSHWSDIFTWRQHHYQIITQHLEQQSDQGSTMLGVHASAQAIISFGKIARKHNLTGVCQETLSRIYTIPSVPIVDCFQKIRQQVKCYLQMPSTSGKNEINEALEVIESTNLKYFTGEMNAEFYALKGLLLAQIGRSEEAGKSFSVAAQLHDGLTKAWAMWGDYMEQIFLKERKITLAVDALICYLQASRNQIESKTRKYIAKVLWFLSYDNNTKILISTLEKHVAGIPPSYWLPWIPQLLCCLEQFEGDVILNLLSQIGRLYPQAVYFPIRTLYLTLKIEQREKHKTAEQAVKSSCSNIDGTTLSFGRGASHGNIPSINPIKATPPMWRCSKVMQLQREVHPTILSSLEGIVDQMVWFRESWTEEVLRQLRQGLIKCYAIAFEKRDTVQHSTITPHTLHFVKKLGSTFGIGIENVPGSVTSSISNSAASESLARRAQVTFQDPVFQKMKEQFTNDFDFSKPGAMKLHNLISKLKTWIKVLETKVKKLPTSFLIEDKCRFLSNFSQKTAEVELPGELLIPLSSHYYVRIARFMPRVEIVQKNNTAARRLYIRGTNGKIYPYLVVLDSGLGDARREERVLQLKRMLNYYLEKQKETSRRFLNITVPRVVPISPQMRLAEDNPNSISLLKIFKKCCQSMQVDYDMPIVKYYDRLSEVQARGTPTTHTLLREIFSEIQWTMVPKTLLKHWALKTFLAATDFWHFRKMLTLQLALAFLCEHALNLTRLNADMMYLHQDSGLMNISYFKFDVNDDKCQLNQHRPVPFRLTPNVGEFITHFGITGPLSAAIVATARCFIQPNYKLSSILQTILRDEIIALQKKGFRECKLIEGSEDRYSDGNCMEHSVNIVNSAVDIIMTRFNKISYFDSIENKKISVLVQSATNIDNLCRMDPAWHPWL
UniProt Q24368: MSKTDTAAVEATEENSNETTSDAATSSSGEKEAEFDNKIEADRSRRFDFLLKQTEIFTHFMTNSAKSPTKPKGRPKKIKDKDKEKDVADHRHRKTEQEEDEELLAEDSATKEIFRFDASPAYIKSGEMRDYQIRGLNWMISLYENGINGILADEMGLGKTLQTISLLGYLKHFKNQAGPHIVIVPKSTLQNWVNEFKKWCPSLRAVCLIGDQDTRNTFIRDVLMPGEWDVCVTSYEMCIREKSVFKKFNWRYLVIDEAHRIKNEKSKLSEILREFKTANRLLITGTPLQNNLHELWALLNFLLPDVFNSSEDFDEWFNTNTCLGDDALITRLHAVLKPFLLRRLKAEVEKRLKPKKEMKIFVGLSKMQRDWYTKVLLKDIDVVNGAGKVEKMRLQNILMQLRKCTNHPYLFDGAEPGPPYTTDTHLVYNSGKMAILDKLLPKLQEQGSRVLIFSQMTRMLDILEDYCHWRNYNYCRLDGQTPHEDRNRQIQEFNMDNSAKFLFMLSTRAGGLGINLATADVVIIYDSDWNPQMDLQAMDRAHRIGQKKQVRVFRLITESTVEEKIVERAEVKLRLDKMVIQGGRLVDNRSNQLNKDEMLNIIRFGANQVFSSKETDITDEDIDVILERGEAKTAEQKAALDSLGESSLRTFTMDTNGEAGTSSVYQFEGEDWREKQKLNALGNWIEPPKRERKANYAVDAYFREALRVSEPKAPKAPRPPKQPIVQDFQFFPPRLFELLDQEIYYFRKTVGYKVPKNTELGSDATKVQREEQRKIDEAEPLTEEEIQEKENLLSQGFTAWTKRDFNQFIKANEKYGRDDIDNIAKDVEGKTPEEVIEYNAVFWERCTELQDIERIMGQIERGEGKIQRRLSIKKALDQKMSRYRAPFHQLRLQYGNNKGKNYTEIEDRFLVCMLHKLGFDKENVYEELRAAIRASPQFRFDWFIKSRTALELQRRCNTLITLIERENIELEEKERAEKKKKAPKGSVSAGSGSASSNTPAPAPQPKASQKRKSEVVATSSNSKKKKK
UniProt P18431: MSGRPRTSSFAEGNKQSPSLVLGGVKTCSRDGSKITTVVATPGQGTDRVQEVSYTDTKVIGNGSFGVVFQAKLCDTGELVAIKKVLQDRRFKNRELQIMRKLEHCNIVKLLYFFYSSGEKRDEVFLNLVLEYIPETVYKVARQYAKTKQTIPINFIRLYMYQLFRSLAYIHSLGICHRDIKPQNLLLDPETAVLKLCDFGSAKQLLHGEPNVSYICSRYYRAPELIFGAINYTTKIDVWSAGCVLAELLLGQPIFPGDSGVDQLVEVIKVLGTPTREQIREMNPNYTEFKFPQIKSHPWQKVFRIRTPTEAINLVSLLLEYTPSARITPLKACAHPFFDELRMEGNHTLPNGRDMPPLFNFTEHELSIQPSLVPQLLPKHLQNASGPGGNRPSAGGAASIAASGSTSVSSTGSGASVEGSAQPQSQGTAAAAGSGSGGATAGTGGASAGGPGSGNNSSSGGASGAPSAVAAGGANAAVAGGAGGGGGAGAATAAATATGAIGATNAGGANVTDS

No constants are given. Whether binding was seen depends on the method and setting. Binding seen in cells or lysates may run through a third protein. Here binding means that the protein was enriched with, or labelled near, the bait; the list need not be complete. For some assays here: No binding means not detected with the bait. For some assays here: Sequences can lack the tags named with a protein.

T1: FLAG-tagged CYC (Drosophila melanogaster) (UniProt O61734)
T1 sequence: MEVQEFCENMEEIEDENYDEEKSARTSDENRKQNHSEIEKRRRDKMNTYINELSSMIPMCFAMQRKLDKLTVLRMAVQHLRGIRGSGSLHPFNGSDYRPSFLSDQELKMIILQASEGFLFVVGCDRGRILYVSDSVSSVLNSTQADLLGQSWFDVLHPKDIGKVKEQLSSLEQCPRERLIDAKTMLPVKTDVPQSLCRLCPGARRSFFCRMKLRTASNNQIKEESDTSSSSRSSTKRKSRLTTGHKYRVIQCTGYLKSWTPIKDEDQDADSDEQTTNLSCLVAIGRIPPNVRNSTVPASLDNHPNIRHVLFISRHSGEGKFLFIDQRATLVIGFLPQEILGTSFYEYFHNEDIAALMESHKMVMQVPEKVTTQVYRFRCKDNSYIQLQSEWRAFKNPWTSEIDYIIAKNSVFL

B1: TIMELESS (protein, UniProt P49021 1-1398)
chain: MDWLLATPQLYSAFSSLGCLEGDTYVVNPNALAILEEINYKLTYEDQTLRTFRRAIGFGQNVRSDLIPLLENAKDDAVLESVIRILVNLTVPVECLFSVDVMYRTDVGRHTIFELNKLLYTSKEAFTEARSTKSVVEYMKHILESDPKLSPHKCDQINNCLLLLRNILHIPETHAHCVMPMMQSMPHGISMQNTILWNLFIQSIDKLLLYLMTCPQRAFWGVTMVQLIALIYKDQHVSTLQKLLSLWFEASLSESSEDNESNTSPPKQGSGDSSPMLTSDPTSDSSDNGSNGRGMGGGMREGTAATLQEVSRKGQEYQNAMARVPADKPDGSEEASDMTGNDSEQPGSPEQSQPAGESMDDGDYEDQRHRQLNEHGEEDEDEDEVEEEEYLQLGPASEPLNLTQQPADKVNNTTNPTSSAPQGCLGNEPFKPPPPLPVRASTSAHAQMQKFNESSYASHVSAVKLGQKSPHAGQLQLTKGKCCPQKRECPSSQSELSDCGYGTQVENQESISTSSNDDDGPQGKPQHQKPPCNTKPRNKPRTIMSPMDKKELRRKKLVKRSKSSLINMKGLVQHTPTDDDISNLLKEFTVDFLLKGYSYLVEELHMQLLSNAKVPIDTSHFFWLVTYFLKFAAQLELDMEHIDTILTYDVLSYLTYEGVSLCEQLELNARQEGSDLKPYLRRMHLVVTAIREFLQAIDTYNKVTHLNEDDKAHLRQLQLQISEMSDLRCLFVLLLRRFNPSIHSKQYLQDLVVTNHILLLILDSSAKLGGCQTIRLSEHITQFATLEVMHYYGILLEDFNNNGEFVNDCIFTMMHHIGGDLGQIGVLFQPIILKTYSRIWEADYELCDDWSDLIEYVIHKFMNTPPKSPLTIPTTSLTEMTKEHNQEHTVCSWSQEEMDTLYWYYVQSKKNNDIVGKIVKLFSNNGNKLKTRISIIQQLLQQDIITLLEYDDLMKFEDAEYQRTLLTTPTSATTESGIEIKECAYGKPSDDVQILLDLIIKENKAQHLLWLQRILIECCFVKLTLRSGLKVPEGDHIMEPVAYHCICKQKSIPVVQWNNEQSTTMLYQPFVLLLHKLGIQLPADAGSIFARIPDYWTPETMYGLAKKLGPLDKLNLKFDASELEDATASSPSRYHHTGPRNSLSSVSSLDVDLGDTEELALIPEVDAAVEKAHAMASTPSPSEIFAVPKTKHCNSIIRYTPDPTPPVPNWLQLVMRSKCNHRTGPSGDPSDCIGSSSTTVDDEGFGKSISAATSQAASTSMSTVNPTTTLSLNMLNTFMGSHNENSSSSGCGGTVSSLSMVALMSTGAAGGGGNTSGLEMDVDASMKSSFERLEVNGSHFSRANNLDQEYSAMVASVYEKEKELNSDNVSLASDLTRMYVSDEDDRLERTEIRVPHYH
B2: PPD3 (enzyme, UniProt Q9VH81 1-520)
chain: MSSSELEVQKAADCQQEAKVPASVEITGSKQPEEDTNARTKAELDFAAAEQYKNQGNEMLKTKEFSKAIDMYTKAIELHPNSAIYYANRSLAHLRQESFGFALQDGVSAVKADPAYLKGYYRRAAAHMSLGKFKQALCDFEFVAKCRPNDKDAKLKFTECNKIVKMRAFERAIAVDKPEKTLSEMYSDMENITIEDDYKGPQLEDGKVTLKFMKELMEHYKAQKRLHRKFAYKILCEIDTYMRAQPSLVDITVPDEEKFTICGDIHGQFYDLMNIFEINGLPSEKNPYLFNGDFVDRGSFSVECIFTLFGFKLLYPNHFFLARGNHESINMNQMYGFTGEVTAKYTSAMADIFTQVFNWLPLCHCINQKILVMHGGLFSTEDVTLDHIRRIERNCQPPEEGLMCELLWSDPQQWMGLGQSKRGVGIQFGPDVTEKFCKDNNLDYIIRSHEVKDMGYEVAHNGKCITVFSAPNYCDTMGNMGAFITITGNNLKPNYKSFEAVPHPDVKPMAYANSLMNWLA
B3: UBC6 (enzyme, UniProt P25153 1-151)
chain: MSTPARRRLMRDFKRLQEDPPTGVSGAPTDNNIMIWNAVIFGPHDTPFEDGTFKLTIEFTEEYPNKPPTVRFVSKVFHPNVYADGGICLDILQNRWSPTYDVSAILTSIQSLLSDPNPNSPANSTAAQLYKENRREYEKRVKACVEQSFID
B4: protein phosphatase PRL-1 (enzyme, UniProt O61722 1-176)
chain: MSITMRQKDLRPAPALIEYKGMKFLITDRPSDITINHYIMELKKNNVNTVVRVCEPSYNTDELETQGITVKDLAFEDGTFPPQQVVDEWFEVLKDKYQQNPEACVAVHCVAGLGRAPVLVALALIELGLKYEAAVEMIRDKRRGAINAKQLSFLEKYKPKARLKHKNGHKNSCSVQ
B5: CYCLE (protein, UniProt O61734 1-413)
chain: MEVQEFCENMEEIEDENYDEEKSARTSDENRKQNHSEIEKRRRDKMNTYINELSSMIPMCFAMQRKLDKLTVLRMAVQHLRGIRGSGSLHPFNGSDYRPSFLSDQELKMIILQASEGFLFVVGCDRGRILYVSDSVSSVLNSTQADLLGQSWFDVLHPKDIGKVKEQLSSLEQCPRERLIDAKTMLPVKTDVPQSLCRLCPGARRSFFCRMKLRTASNNQIKEESDTSSSSRSSTKRKSRLTTGHKYRVIQCTGYLKSWTPIKDEDQDADSDEQTTNLSCLVAIGRIPPNVRNSTVPASLDNHPNIRHVLFISRHSGEGKFLFIDQRATLVIGFLPQEILGTSFYEYFHNEDIAALMESHKMVMQVPEKVTTQVYRFRCKDNSYIQLQSEWRAFKNPWTSEIDYIIAKNSVFL
B6: UCH (enzyme, UniProt P35122 1-227)
chain: MLTWTPLESNPEVLTKYIHKLGVSPAWSVTDVIGLEDDTLEWIPRPVKAFILLFPCSETYEKHRAEEHDRIKEVEEQHPEDLFYMRQFTHNACGTVALIHSVANNKEVDIDRGVLKDFLEKTASLSPEERGRALEKDEKFTADHEALAQEGQTNAANHEKVIHHFIALVNKEGTLYELDGRKSFPIKHGPTSEETFVKDAAKVCKEFMARDPNEVRFTVLALTAAQQ

One assay concerns the target T1, FLAG-tagged CYC (Drosophila melanogaster). Kind of assay: affinity purification with mass spectrometry; FLAG-CYC immunoprecipitated from heads of w; FLAG-cyc; cyc^01 flies collected at ZT24, LC/MS/MS.
Turning to PERIOD (from UniProt P07663 1-1218), the binding entry is “binds”. As for CLOCK (from UniProt O61735 1-1027), the binding entry is “binds”.

Turning to NIPPED-A (from UniProt Q8I8U7 1-3790), the binding entry is “binds”. Turning to B1, the binding entry is recorded as “binds”.

The target of another assay is GFP tagged CLOCK (CLK) protein (Drosophila melanogaster) (UniProt O61735). Kind of assay: affinity purification with mass spectrometry; GFP-CLK (or the GFP control) captured from fly head extracts on GFP nanobody beads (ChromoTek) overnight at 4 °C, washed three times with cold EB3 buffer; flies entrained in LD and collected at ZT0 (ZT24), ZT6, ZT9, ZT12, ZT16 and ZT20; LC/MS/MS once for each time point.
With B2, the binding result is “binds”. In the case of B3, the binding entry is recorded as “binds”. For B4, the binding entry is “binds”.

B1: the binding result is reported as “binds”. The same measure, in the same setting: the value for B5 was “binds”. In the case of B6, the binding result is reported as “binds”.

The next assay has the same target. The assay is described as above. The source holds these as a separate data set.
Take “PP1alpha-96A (from UniProt P48461 1-327) (enzyme)”: the binding result is recorded as “binds”. For PERIOD (from UniProt P07663 1-1218), the binding entry was “binds”. Regarding ISWI (from UniProt Q24368 1-1027), the binding result is “binds”. With “DBT kinase (from UniProt O76324 1-440) (enzyme)”, the binding entry is “binds”. For the molecule “SHAGGY (SGG) kinase (from UniProt P18431 1-514) (enzyme)”, the binding result is reported as “no binding”. As to “CRYPTOCHROME (from UniProt O77059 1-542)”, the binding entry is listed as “no binding”. Take “PP2B-14D (from UniProt Q27889 1-570) (enzyme)”: the binding result was “binds”.
